Data as given in patent US20110008356A1.
These are yes or no findings as the source states them, for the method shown. Some results given as binding are weak or reduced against the parent protein; the word gives no strength.

Target: Human IL-17RA:Fc (human), Q96F46
Experiment: SPR (BIAcore)
Details: remark: other sources report otherwise

B1: Human IL-17F, Q96PD4 31-163 (ligand, UniProt Q96PD4 31-163, looked up)
chain: RKIPKVGHTFFQKPESCPPVPGGSMKLDIGIINENQRVSMSRNIESRSTSPWNYTVTWDPNRYPSEVVQAQCRNLGCINAQGKEDISMNSVPIQQETLVVRRKHQGCSVSFQLEKVLVTVGCTCVTPVIHHVQ
- binding: binds
